Experimental findings from patent publication US20090208473A1 (RUTGERS THE STATE UNIVERSITY OF NEW JERSEY, published 2009) are described below.

Numbering of substitutions follows the chain as printed. In names and notes the source's numbering stands. Results are given in words; binding and its absence hold for the method and conditions named. Some entries that bind do so weakly or less than the wild type. For some assays here: Tags and fused reporters may be left off the sequences shown.

In assay [1] the target is GFP-MG53 fusion protein (mouse) (UniProt Q1XH17). The assay is described as follows: oligomerization; Western blot without DTT of GFP-MG53 constructs from C2C12 cells. Background: Immunoblotting shows a protein as a band on a membrane.
The target of assay [2] is GFP-MG53 C53, 55, 56A mutant (mouse) (UniProt Q1XH17). The description is as above.
The target in assay [3] is GFP-MG53 H31A mutant (mouse) (UniProt Q1XH17). Described as above.
The target in assay [4] is GFP-MG53 C29L mutant (mouse) (UniProt Q1XH17). Described as above.
Assay [5] concerns the target GFP-MG53 C86A mutant (mouse) (UniProt Q1XH17). The description is as above.
Assay [6] concerns the target MG53 C313A mutant (mouse) (UniProt Q1XH17). The assay is described as follows: oligomerization under oxidized conditions (FIG. 16).
Assay [7] has as its target GFP-MG53 C29L/C105S double mutant (mouse) (UniProt Q1XH17). The assay is described as follows: oligomerization; Western blot without DTT of GFP-MG53 constructs from C2C12 cells.
In assay [8] the target is GFP-MG53 C105S mutant (mouse) (UniProt Q1XH17). Described as above.

B1: GFP-MG53 fusion protein (protein, mouse, UniProt Q1XH17 1-477, looked up, not shown: large carriers)
chain: MSAAPGLLRQELSCPLCLQLFDAPVTAECGHSFCRACLIRVAGEPAADGTVACPCCQAPTRPQALSTNLQLSRLVEGLAQVPQGHCEEHLDPLSIYCEQDRTLVCGVCASLGSHRGHRLLPAAEAQARLKTQLPQQKMQLQEACMRKEKTVAVLEHQLVEVEETVRQFRGAVGEQLGKMRMFLAALESSLDREAERVRGDAGVALRRELSSLNSYLEQLRQMEKVLEEVADKPQTEFLMKFCLVTSRLQKILSESPPPARLDIQLPVISDDFKFQVWKKMFRALMPALEELTFDPSSAHPSLVVSSSGRRVECSDQKAPPAGEDTRQFDKAVAVVAQQLLSQGEHYWEVEVGDKPRWALGVMAADASRRGRLHAVPSQGLWLLGLRDGKILEAHVEAKEPRALRTPERPPARIGLYLSFADGVLAFYDASNPDVLTPIFSFHERLPGPVYPIFDVCWHDKGKNAQPLLLVGPEQEQA
As for B1, the binding entry in assay [1] is reported as “binds”.

B2: GFP-MG53 C53, 55, 56A mutant (protein, mouse, UniProt Q1XH17 1-477, looked up, not shown: large carriers)
chain: B1 chain with C53A, C55A, C56A
With B2, the binding result in assay [2] is “binds”.

B3: GFP-MG53 H31A mutant (protein, mouse, UniProt Q1XH17 1-477, looked up, not shown: large carriers)
chain: B1 chain with H31A
In the case of B3, the binding result in assay [3] is recorded as “binds”.

B4: GFP-MG53 C29L mutant (protein, mouse, UniProt Q1XH17 1-477, looked up, not shown: large carriers)
chain: B1 chain with C29L
For the molecule B4, the binding result in assay [4] is on record as “binds”.

B5: GFP-MG53 C86A mutant (protein, mouse, UniProt Q1XH17 1-477, looked up, not shown: large carriers)
chain: B1 chain with C86A
Take B5: the binding result in assay [5] is listed as “binds”.

B6: MG53 C313A mutant (protein, mouse, UniProt Q1XH17 1-477, looked up, not shown: large carriers)
chain: B1 chain with C313A
Take B6: the binding result in assay [6] is on record as “binds”.

B7: GFP-MG53 C29L/C105S double mutant (protein, mouse, UniProt Q1XH17 1-477, looked up, not shown: large carriers)
chain: B1 chain with C29L, C105S
For the molecule B7, in assay [7], the binding result is given as “binds”.

B8: GFP-MG53 C105S mutant (protein, mouse, UniProt Q1XH17 1-477, looked up, not shown: large carriers)
chain: B1 chain with C105S
In the case of B8, in assay [8], the binding entry is given as “binds”.
